In PMC11213201:
Results are given in words; binding and its absence hold for the method and conditions named. Binding seen in cells or lysates may run through a third protein. Here binding means that the protein was enriched with, or labelled near, the bait; the list need not be complete.

By UniProt entry, the sequences of proteins in these tests, tags left out.
UniProt Q9BQ24: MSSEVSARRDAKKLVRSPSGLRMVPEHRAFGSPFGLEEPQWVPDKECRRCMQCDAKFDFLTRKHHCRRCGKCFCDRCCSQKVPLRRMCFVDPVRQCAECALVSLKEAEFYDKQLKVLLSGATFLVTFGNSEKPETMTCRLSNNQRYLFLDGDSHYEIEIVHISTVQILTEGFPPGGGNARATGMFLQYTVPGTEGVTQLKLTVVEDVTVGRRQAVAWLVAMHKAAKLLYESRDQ
UniProt P36543: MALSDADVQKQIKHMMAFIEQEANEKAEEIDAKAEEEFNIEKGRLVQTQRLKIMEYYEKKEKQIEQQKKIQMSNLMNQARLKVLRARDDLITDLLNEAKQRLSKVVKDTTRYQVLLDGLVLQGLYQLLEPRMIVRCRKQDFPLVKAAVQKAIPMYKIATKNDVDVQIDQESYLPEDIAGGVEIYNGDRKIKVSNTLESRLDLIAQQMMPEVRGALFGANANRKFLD
UniProt P21281: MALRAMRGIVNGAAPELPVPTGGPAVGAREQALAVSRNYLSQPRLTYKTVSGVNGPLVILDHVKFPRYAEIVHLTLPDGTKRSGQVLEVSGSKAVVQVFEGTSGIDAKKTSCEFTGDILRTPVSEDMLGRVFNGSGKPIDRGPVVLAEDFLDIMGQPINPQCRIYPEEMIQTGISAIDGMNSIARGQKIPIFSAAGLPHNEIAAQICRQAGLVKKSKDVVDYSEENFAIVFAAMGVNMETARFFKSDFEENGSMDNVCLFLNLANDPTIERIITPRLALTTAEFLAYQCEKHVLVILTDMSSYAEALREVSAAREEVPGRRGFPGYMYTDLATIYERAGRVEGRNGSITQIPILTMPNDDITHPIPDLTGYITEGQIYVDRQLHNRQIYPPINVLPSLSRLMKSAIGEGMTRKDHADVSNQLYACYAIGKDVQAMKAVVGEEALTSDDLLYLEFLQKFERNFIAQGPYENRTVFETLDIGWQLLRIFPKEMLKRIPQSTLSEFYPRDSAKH
UniProt P20339: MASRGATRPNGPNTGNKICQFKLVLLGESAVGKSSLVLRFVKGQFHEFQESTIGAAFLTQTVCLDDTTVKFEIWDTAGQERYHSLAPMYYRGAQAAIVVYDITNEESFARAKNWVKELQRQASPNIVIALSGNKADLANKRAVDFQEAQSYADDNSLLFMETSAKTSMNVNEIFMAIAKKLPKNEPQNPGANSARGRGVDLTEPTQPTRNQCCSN
UniProt Q9NT62: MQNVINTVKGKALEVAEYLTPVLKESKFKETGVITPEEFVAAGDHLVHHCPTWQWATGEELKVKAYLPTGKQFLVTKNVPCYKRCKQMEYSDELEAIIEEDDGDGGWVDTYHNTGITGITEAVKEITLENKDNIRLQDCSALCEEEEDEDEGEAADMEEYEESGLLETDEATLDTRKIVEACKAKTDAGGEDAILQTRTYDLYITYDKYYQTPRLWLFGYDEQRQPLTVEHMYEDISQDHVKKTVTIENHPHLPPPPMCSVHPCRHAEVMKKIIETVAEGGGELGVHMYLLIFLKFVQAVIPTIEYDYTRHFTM
UniProt Q9Y5K8: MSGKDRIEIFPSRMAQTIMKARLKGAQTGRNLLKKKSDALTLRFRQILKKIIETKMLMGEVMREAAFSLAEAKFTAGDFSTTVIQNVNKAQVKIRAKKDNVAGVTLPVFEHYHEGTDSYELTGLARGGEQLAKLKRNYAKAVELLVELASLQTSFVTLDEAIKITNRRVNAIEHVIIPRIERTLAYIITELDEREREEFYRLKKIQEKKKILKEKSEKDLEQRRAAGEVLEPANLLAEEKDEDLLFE
UniProt Q9UI12: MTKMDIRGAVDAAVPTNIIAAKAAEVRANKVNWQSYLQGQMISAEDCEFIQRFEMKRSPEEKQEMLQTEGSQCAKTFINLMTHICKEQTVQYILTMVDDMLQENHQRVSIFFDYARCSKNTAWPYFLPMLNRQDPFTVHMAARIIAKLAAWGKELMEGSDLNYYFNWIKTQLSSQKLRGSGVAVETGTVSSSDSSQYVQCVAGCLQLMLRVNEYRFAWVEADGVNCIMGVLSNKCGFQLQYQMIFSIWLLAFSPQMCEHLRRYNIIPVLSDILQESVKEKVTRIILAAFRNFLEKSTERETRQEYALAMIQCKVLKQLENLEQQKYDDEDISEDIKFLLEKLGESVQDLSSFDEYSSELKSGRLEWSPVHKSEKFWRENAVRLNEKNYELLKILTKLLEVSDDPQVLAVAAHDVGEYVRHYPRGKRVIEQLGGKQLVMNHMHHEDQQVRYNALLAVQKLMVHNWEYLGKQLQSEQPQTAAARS
UniProt P21283: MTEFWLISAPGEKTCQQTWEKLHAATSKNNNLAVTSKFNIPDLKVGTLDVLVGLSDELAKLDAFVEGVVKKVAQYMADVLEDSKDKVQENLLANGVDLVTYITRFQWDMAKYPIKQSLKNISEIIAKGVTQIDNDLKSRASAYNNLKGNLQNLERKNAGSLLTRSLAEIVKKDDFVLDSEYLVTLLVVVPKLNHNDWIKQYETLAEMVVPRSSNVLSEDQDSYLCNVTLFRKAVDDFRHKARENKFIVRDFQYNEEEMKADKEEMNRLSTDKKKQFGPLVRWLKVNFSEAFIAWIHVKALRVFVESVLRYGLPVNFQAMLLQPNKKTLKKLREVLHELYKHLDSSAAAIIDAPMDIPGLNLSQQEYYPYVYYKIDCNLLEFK
UniProt P51148: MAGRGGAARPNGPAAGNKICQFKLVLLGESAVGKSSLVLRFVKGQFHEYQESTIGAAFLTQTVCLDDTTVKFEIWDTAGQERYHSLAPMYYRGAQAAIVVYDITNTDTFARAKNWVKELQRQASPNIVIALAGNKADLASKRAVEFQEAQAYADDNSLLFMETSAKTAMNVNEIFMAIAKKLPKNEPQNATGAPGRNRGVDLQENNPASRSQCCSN

Target: ZFYVE21-GFP (UniProt Q9BQ24)
Test: affinity purification with mass spectrometry; GFP-Trap agarose pulldown from ZFYVE21-GFP HUVECs treated with vehicle or PRA 25% v/v; trypsin digestion, label-free MS-LC; three preparations

Substance	binding
ATP6V1E1 (from UniProt P36543 1-226)	binds
ATP6V1B2 (from UniProt P21281 1-511)	binds
Rab5A (from UniProt P20339 1-215)	binds
ATG3 (from UniProt Q9NT62 1-314)	binds

Next, values leading:

binding	Substance
binds	ATP6V1D (from UniProt Q9Y5K8 1-247)
binds	ATP6V1H (from UniProt Q9UI12 1-483)
binds	ATP6V1C1 (from UniProt P21283 1-382)
binds	Rab5C (from UniProt P51148 1-216)
